These are yes or no findings as the source states them, for the method shown. Some results given as binding are weak or reduced against the parent protein; the word gives no strength. Tags and fused reporters may be left off the sequences shown.

For assay [1], the target named is T1, SAP2, mating-based split-ubiquitin (mbSUS) fusion (A. thaliana) (UniProt Q8H0X0).
T1 sequence: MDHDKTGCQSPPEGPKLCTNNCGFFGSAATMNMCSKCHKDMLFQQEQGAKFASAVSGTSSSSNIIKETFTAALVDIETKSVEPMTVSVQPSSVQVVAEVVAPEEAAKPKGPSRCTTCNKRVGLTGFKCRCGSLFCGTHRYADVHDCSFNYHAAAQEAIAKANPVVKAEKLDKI
The experiment in a line: two-hybrid.

For assay [2], the target named is T2, SAP3, mating-based split-ubiquitin (mbSUS) fusion (A. thaliana) (UniProt Q9ZNU9).
T2 sequence: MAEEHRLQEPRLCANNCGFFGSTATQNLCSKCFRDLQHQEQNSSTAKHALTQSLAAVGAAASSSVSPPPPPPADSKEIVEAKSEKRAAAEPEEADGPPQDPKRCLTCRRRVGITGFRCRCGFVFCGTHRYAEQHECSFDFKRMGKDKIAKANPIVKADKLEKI
The experiment in a line: two-hybrid.

B1: CML49, mating-based split-ubiquitin (mbSUS) fusion (protein, UniProt Q8W4L0 1-335)
chain: MSGYPPSSQGYGYGGNPPPPQPPYGSTGNNPPPYGSSGSNPPPPYGSSASSPYAVPYGAQPAPYGAPPSAPYASLPGDHNKPHKEKPHGASYGSPSPGGYGAHPSSGPSDYGGYGGAPQQSGHGGGYGGAPQQSGHGGGYGAPPPQASYGSPFASLVPSAFPPGTDPNIVACFQAADRDNSGFIDDKELQGALSSYNQSFSIRTVHLLMYLFTNSNVRKIGPKEFTSLFFSLQNWRSIFERFDKDRSGRIDTNELRDALMSLGFSVSPVILDLLVSKFDKSGGRNRAIEYDNFIECCLTVKGLTEKFKEKDTALSGSAIFNYENFMLTVLPFLVA
B1: the binding entry in assay [1] and in assay [2] was “binds” in each case.
